Experimental data published in the supplement of paper PMC8728848.
This is one part of the list.

How the values were obtained:
Test in all cases: glycan array binding signal (z-score within array); higher = stronger binding
Conditions in all cases: glycan notation: IUPAC condensed, linker removed
[1] = target: Fuc(a1-2)Gal(b1-4)GlcNAc(b1-3)Gal(b1-4)GlcNAc(b1-3)Gal(b1-4)GlcNAc
Outline: (§1)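 Columns mapping to the same glycan were averaged after glycan names were converted to IUPAC-condensed notation. The data come from 3228 arrays in the Consortium for Functional Glycomics database, limited to those with an available protein sequence. Binding is reported as a within-array Z-score averaged across arrays of one protein sequence and across linkers.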

[2] = target: Fuc(a1-2)Gal(b1-4)GlcNAc(b1-3)GalNAc
Outline: as §1

[3] = target: Fuc(a1-2)Gal(b1-4)GlcNAc(b1-3)[Fuc(a1-2)Gal(b1-4)GlcNAc(b1-6)]GalNAc
Outline: as §1

[4] = target: Fuc(a1-2)Gal(b1-4)GlcNAc(b1-3)[Fuc(a1-3)[Gal(b1-4)]GlcNAc(b1-6)]Gal(b1-4)Glc
Outline: as §1

[5] = target: Fuc(a1-2)Gal(b1-4)GlcNAc(b1-6)GalNAc
Outline: as §1

[6] = target: Fuc(a1-2)Gal(b1-4)GlcNAc6S
Outline: as §1

[7] = target: Fuc(a1-2)Gal(b1-4)[Fuc(a1-3)]GlcNAc
Outline: as §1

[8] = target: Fuc(a1-2)Gal(b1-4)[Fuc(a1-3)]GlcNAc(b1-2)Man(a1-3)[Fuc(a1-2)Gal(b1-4)[Fuc(a1-3)]GlcNAc(b1-2)Man(a1-6)]Man(b1-4)GlcNAc(b1-4)[Fuc(a1-6)]GlcNAc
Outline: as §1

[9] = target: Fuc(a1-2)Gal(b1-4)[Fuc(a1-3)]GlcNAc(b1-2)[Fuc(a1-2)Gal(b1-4)[Fuc(a1-3)]GlcNAc(b1-4)]Man(a1-3)[Fuc(a1-2)Gal(b1-4)[Fuc(a1-3)]GlcNAc(b1-2)Man(a1-6)]Man(b1-4)GlcNAc(b1-4)GlcNAc
Outline: as §1

[10] = target: Fuc(a1-2)Gal(b1-4)[Fuc(a1-3)]GlcNAc(b1-3)Gal(b1-4)[Fuc(a1-3)]GlcNAc
Outline: as §1

[11] = target: Fuc(a1-2)Gal(b1-4)[Fuc(a1-3)]GlcNAc(b1-3)Gal(b1-4)[Fuc(a1-3)]GlcNAc(b1-3)Gal(b1-4)[Fuc(a1-3)]GlcNAc
Outline: as §1

[12] = target: Fuc(a1-2)Gal(b1-4)[Fuc(a1-3)]GlcNAc(b1-3)GalNAc
Outline: as §1

[13] = target: Fuc(a1-2)Gal(b1-4)[Fuc(a1-3)]GlcNAc(b1-3)[Neu5Ac(a2-6)Gal(b1-4)GlcNAc(b1-6)]Gal(b1-4)Glc
Outline: as §1

[14] = target: Fuc(a1-2)Gal3S(b1-4)GlcNAc
Outline: as §1

[15] = target: Fuc(a1-2)Gal6S(b1-3)GlcNAc
Outline: as §1

[16] = target: Fuc(a1-2)Gal6S(b1-3)GlcNAc6S
Outline: as §1

Fuc(a1-2)Gal6S(b1-4)Glc = target: Fuc(a1-2)Gal6S(b1-4)Glc
Outline: as §1

[17] = target: Fuc(a1-2)Gal6S(b1-4)Glc6S
Outline: as §1

Fuc(a1-2)[Gal(a1-3)]Gal = target: Fuc(a1-2)[Gal(a1-3)]Gal
Outline: as §1

[18] = target: Fuc(a1-2)[Gal(a1-3)]Gal(b1-3)GalNAc
Outline: as §1

[19] = target: Fuc(a1-2)[Gal(a1-3)]Gal(b1-3)GalNAc(b1-3)Gal(a1-4)Gal(b1-4)Glc
Outline: as §1

[20] = target: Fuc(a1-2)[Gal(a1-3)]Gal(b1-3)GlcNAc
Outline: as §1

[21] = target: Fuc(a1-2)[Gal(a1-3)]Gal(b1-3)GlcNAc(b1-2)Man(a1-3)[Fuc(a1-2)[Gal(a1-3)]Gal(b1-3)GlcNAc(b1-2)Man(a1-6)]Man(b1-4)GlcNAc(b1-4)GlcNAc
Outline: as §1

[22] = target: Fuc(a1-2)[Gal(a1-3)]Gal(b1-3)GlcNAc(b1-2)Man(a1-3)[Fuc(a1-2)[Gal(a1-3)]Gal(b1-3)GlcNAc(b1-2)Man(a1-6)]Man(b1-4)GlcNAc(b1-4)[Fuc(a1-6)]GlcNAc
Outline: as §1

[23] = target: Fuc(a1-2)[Gal(a1-3)]Gal(b1-3)GlcNAc(b1-3)GalNAc
Outline: as §1

[24] = target: Fuc(a1-2)[Gal(a1-3)]Gal(b1-3)GlcNAc(b1-6)GalNAc
Outline: as §1

[25] = target: Fuc(a1-2)[Gal(a1-3)]Gal(b1-4)Glc
Outline: as §1

[26] = target: Fuc(a1-2)[Gal(a1-3)]Gal(b1-4)GlcNAc
Outline: as §1

[27] = target: Fuc(a1-2)[Gal(a1-3)]Gal(b1-4)GlcNAc(b1-2)Man
Outline: as §1

[28] = target: Fuc(a1-2)[Gal(a1-3)]Gal(b1-4)GlcNAc(b1-2)Man(a1-3)[Fuc(a1-2)[Gal(a1-3)]Gal(b1-4)GlcNAc(b1-2)Man(a1-6)]Man(b1-4)GlcNAc(b1-4)GlcNAc
Outline: as §1

[29] = target: Fuc(a1-2)[Gal(a1-3)]Gal(b1-4)GlcNAc(b1-2)Man(a1-3)[Fuc(a1-2)[Gal(a1-3)]Gal(b1-4)GlcNAc(b1-2)Man(a1-6)]Man(b1-4)GlcNAc(b1-4)[Fuc(a1-6)]GlcNAc
Outline: as §1

[30] = target: Fuc(a1-2)[Gal(a1-3)]Gal(b1-4)GlcNAc(b1-3)GalNAc
Outline: as §1

[31] = target: Fuc(a1-2)[Gal(a1-3)]Gal(b1-4)GlcNAc(b1-3)[Fuc(a1-2)[Gal(a1-3)]Gal(b1-4)GlcNAc(b1-6)]GalNAc
Outline: as §1

[32] = target: Fuc(a1-2)[Gal(a1-3)]Gal(b1-4)GlcNAc(b1-6)GalNAc
Outline: as §1

[33] = target: Fuc(a1-2)[Gal(a1-3)]Gal(b1-4)[Fuc(a1-3)]Glc
Outline: as §1

[34] = target: Fuc(a1-2)[Gal(a1-3)]Gal(b1-4)[Fuc(a1-3)]GlcNAc
Outline: as §1

[35] = target: Fuc(a1-2)[Gal(a1-3)]Gal(b1-4)[Fuc(a1-3)]GlcNAc(b1-3)GalNAc
Outline: as §1

B1: GS7807F-bth-514-18-514 (Bacteroides thetaiotaomicron) (protein)
chain: AGSCTGNFEEYNTNQFQIHEADPSTLMKSMIETIVNIQQNDSQMMDQMVGQLGGYLTCANVWSGTNFGTFNQSDAWNAGPWNTNFEKIYGNFFQIQEATNESGHYYAFARMIRAITMLRVADCYGPMPYSQVKKGNFYVAYDTEEQVYKNIMEDFASAANVLYNYYKDTNGNAPLASNDPVFSGNYANWARLANSMRLRVAIRISTAYPEMAKENAEAAASHEAGLIEANNDNAMMDCGSQTNPYQLAAVSWGDLRVNANIVDYMNGYGDPRMSKYFNHSTFTGHTQEYVGMRSGEDGFAKSDVAGYSIPAITGTSKLLVFCAAETAFLRAEGKLKNWSVGNKSAKEYYEEGIKLSMEQYGTTMPDNYLTNTEKPTVSHNNDPRGHAYTISNTVAVAWNDNNEEENLQRIITQKWIANYPLGLEAWAEYRRTGYPELYPCIDNLSPSGVDSKRGMRRLRFPYTEVQNNHSNYQQGVSYLKNGGPDNEATDLSWGKTN
glycan array binding signal (z-score) [1]: -0.824
glycan array binding signal (z-score) [2]: 0.215
glycan array binding signal (z-score) [3]: 0.137
glycan array binding signal (z-score) [4]: 0.222
glycan array binding signal (z-score) [5]: 1.22
glycan array binding signal (z-score) [6]: -0.78
glycan array binding signal (z-score) [7]: -0.646
glycan array binding signal (z-score) [8]: -0.583
glycan array binding signal (z-score) [9]: -0.286
glycan array binding signal (z-score) [10]: -0.198
glycan array binding signal (z-score) [11]: -0.169
glycan array binding signal (z-score) [12]: 1.06
glycan array binding signal (z-score) [13]: -0.798
glycan array binding signal (z-score) [14]: -0.31
glycan array binding signal (z-score) [15]: -0.762
glycan array binding signal (z-score) [16]: -0.358
glycan array binding signal (z-score) (Fuc(a1-2)Gal6S(b1-4)Glc): -0.341
glycan array binding signal (z-score) [17]: -0.674
glycan array binding signal (z-score) (Fuc(a1-2)[Gal(a1-3)]Gal): -0.629
glycan array binding signal (z-score) [18]: -0.384
glycan array binding signal (z-score) [19]: -0.895
glycan array binding signal (z-score) [20]: -0.584
glycan array binding signal (z-score) [21]: 0.454
glycan array binding signal (z-score) [22]: -0.408
glycan array binding signal (z-score) [23]: -0.663
glycan array binding signal (z-score) [24]: 0.398
glycan array binding signal (z-score) [25]: -0.407
glycan array binding signal (z-score) [26]: -0.659
glycan array binding signal (z-score) [27]: -0.295
glycan array binding signal (z-score) [28]: 1.31
glycan array binding signal (z-score) [29]: -0.741
glycan array binding signal (z-score) [30]: -0.338
glycan array binding signal (z-score) [31]: 0.838
glycan array binding signal (z-score) [32]: -0.607
glycan array binding signal (z-score) [33]: -0.866
glycan array binding signal (z-score) [34]: -0.626
glycan array binding signal (z-score) [35]: 3.01
